The supplement of paper PMC11732987, “Enantioselective OTUD7B fragment discovery through chemoproteomics screening and high-throughput optimisation” (Communications Chemistry, 2025)
The other results are listed elsewhere or left out. The data scatter; read single values as rough.

Chains of the proteins cited; added tags and fusions are not shown. Lines headed by an entry give the natural chain unless they say otherwise; changes in a name come on top. Residues count along the entry.
UniProt Q9UQ35: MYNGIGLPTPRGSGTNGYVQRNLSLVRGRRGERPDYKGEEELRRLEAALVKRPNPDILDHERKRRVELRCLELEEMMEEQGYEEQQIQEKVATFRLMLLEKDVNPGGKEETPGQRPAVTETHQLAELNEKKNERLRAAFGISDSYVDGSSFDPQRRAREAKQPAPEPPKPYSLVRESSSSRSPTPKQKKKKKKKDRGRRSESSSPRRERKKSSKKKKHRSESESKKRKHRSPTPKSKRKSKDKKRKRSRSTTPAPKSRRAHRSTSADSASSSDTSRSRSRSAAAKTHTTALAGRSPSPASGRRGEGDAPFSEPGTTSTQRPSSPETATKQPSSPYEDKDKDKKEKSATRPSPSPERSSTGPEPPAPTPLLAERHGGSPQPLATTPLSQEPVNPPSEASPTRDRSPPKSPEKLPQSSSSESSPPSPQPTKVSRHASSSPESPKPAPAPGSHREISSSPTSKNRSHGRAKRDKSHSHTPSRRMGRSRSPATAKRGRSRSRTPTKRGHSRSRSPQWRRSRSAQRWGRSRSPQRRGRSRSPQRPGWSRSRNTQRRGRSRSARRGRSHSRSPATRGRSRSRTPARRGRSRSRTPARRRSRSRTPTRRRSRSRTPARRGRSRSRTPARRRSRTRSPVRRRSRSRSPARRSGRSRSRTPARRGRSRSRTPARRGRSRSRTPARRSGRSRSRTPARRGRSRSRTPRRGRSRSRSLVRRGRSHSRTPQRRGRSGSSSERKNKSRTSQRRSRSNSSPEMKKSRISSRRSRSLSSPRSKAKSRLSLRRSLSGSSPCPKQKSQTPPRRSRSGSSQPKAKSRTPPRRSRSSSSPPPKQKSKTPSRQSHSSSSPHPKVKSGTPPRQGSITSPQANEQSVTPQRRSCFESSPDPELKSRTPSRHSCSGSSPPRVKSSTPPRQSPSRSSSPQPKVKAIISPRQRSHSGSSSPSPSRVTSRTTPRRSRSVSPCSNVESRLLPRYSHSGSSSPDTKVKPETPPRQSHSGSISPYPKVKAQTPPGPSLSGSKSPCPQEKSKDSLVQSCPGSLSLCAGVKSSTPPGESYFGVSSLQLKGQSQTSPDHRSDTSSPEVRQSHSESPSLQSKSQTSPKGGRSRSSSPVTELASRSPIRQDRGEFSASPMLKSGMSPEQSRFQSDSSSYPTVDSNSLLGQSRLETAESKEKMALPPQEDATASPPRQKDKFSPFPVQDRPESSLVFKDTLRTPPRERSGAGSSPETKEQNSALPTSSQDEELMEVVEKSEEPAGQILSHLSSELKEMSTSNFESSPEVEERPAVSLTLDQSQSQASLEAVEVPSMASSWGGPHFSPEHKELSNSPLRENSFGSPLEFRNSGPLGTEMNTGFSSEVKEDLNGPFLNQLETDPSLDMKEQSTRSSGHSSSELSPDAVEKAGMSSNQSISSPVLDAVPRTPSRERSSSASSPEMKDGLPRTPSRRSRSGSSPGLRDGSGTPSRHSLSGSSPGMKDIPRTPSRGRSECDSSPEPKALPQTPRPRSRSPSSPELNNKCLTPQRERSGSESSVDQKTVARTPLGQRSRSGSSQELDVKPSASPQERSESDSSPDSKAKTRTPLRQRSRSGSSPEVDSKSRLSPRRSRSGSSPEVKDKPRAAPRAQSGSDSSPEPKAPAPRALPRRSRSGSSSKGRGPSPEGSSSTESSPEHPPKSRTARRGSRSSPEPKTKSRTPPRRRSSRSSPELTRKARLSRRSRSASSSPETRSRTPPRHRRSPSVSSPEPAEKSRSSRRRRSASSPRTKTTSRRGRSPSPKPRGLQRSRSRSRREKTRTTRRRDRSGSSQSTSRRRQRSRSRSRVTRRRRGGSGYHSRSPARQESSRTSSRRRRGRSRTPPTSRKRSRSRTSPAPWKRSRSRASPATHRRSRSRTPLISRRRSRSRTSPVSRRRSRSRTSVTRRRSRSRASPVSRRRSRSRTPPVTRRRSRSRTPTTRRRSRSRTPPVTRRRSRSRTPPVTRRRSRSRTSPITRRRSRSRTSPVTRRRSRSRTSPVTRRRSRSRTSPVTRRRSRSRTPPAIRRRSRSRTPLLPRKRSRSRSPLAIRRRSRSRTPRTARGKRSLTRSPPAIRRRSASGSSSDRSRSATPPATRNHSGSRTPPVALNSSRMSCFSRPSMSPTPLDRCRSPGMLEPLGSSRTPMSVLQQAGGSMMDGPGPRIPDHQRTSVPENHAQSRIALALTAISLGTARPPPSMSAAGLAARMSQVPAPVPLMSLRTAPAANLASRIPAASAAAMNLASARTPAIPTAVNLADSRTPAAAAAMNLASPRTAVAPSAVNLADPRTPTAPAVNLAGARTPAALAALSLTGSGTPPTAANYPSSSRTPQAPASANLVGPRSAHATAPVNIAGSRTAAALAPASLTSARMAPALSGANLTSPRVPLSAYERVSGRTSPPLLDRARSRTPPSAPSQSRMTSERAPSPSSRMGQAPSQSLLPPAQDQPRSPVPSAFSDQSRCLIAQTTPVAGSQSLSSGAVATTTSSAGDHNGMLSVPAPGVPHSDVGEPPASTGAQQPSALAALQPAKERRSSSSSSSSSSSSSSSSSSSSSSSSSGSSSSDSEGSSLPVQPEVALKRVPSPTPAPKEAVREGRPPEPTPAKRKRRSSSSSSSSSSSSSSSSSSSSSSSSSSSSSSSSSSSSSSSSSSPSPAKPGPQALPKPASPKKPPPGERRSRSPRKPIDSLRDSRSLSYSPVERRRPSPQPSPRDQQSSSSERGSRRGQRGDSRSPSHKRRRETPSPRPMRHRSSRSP
UniProt O15056: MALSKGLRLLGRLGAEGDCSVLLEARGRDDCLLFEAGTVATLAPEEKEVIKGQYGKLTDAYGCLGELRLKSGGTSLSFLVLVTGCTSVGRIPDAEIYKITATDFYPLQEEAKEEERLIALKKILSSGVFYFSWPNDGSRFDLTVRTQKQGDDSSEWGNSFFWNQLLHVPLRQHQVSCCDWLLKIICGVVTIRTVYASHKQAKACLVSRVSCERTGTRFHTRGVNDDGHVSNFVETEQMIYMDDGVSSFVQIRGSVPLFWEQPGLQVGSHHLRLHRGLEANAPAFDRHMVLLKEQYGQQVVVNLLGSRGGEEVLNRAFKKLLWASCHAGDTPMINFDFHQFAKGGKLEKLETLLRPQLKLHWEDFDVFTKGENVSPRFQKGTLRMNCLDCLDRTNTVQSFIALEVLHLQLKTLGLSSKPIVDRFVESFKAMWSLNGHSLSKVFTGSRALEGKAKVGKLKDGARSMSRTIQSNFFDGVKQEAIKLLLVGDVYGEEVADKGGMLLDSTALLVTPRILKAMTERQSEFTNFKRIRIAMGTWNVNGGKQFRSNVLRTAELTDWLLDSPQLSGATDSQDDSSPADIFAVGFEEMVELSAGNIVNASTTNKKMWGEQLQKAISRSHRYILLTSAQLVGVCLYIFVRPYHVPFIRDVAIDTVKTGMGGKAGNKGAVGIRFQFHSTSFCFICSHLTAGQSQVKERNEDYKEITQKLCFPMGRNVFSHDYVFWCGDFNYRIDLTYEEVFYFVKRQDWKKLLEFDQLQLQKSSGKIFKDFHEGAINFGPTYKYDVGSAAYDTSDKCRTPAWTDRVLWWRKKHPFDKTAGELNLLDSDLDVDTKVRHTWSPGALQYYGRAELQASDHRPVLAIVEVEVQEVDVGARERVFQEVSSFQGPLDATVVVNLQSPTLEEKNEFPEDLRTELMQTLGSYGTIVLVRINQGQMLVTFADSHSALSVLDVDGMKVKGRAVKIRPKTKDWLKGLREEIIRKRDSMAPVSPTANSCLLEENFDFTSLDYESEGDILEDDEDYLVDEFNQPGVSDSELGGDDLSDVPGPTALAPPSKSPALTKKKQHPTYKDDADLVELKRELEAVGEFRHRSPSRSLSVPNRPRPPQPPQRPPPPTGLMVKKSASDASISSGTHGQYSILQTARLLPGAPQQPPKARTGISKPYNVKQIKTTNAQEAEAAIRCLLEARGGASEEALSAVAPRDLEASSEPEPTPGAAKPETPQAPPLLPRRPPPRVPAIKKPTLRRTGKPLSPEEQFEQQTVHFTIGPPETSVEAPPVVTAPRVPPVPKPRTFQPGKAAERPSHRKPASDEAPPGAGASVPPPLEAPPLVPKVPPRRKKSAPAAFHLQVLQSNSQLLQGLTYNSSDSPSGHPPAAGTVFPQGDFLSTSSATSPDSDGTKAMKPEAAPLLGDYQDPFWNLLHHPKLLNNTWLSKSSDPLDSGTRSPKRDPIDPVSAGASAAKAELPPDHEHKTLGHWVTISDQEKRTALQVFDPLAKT
UniProt Q9BVQ7, 694-715: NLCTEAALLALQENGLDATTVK
UniProt Q13243: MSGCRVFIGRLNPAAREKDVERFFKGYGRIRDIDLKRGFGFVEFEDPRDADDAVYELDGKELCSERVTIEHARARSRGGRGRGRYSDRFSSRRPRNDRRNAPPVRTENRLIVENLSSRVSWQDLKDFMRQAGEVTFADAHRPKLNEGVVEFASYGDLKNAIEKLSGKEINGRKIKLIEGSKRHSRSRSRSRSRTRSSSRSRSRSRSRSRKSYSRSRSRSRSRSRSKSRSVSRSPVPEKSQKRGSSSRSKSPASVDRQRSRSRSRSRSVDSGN
UniProt P63165, whole entry, looked up: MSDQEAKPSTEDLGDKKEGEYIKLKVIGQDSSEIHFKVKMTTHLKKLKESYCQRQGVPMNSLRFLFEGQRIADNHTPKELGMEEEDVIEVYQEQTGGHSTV
UniProt O94901, whole entry, looked up: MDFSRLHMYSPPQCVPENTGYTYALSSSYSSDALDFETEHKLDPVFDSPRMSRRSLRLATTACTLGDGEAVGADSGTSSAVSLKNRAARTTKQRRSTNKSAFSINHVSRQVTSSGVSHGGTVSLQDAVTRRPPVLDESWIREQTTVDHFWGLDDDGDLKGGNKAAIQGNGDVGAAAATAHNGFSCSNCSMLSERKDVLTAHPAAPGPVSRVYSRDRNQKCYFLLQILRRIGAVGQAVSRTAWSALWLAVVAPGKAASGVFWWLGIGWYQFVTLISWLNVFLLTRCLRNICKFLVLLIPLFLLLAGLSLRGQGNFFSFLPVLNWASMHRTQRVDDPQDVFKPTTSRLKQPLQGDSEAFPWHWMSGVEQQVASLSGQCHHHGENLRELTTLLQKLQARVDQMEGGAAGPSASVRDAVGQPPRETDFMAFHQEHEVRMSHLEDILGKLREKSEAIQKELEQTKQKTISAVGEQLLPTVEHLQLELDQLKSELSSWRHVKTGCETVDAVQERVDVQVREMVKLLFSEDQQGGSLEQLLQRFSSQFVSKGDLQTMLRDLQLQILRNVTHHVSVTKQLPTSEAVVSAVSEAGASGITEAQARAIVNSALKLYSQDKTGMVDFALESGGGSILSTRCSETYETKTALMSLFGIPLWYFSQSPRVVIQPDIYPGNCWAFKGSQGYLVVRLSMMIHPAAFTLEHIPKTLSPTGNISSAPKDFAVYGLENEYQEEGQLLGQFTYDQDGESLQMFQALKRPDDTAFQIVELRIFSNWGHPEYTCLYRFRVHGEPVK
UniProt Q8IX01: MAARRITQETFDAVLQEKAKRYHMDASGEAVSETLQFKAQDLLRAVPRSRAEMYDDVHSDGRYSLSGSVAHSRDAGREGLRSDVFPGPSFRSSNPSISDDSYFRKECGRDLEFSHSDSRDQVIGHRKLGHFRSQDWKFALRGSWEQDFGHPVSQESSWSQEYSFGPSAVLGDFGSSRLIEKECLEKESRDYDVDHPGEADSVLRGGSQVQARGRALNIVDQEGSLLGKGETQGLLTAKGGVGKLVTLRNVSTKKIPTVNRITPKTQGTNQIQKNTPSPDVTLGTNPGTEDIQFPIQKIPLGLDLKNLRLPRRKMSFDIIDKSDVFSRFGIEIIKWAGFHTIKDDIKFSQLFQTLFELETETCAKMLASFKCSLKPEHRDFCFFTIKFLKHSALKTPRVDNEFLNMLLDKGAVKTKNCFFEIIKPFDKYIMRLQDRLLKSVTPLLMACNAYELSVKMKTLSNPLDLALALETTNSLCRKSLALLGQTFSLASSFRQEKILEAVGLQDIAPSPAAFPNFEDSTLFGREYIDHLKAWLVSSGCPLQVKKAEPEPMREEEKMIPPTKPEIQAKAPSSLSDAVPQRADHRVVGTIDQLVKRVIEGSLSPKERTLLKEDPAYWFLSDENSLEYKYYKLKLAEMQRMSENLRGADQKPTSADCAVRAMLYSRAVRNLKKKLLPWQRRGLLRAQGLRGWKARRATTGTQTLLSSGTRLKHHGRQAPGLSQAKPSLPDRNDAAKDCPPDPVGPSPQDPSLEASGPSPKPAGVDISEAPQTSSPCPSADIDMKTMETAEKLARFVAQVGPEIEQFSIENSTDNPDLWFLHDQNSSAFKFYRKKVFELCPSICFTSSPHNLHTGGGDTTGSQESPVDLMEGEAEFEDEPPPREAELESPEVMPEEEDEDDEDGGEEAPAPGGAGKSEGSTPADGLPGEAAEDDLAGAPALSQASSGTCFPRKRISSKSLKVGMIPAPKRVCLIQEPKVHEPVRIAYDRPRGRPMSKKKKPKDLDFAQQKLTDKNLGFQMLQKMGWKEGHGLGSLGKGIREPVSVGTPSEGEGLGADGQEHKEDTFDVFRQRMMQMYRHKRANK

How the values were obtained:
[1] = compound: ClCC(=O)N[C@@H]1CCCc2ccccc12; assay: log2 mean competition ratio of IA-DTB cysteine labelling (DMSO/compound) (log2 ratio); higher = stronger cysteine engagement by compound; conditions: treatment time: 4 h, cell line lysate: HEK293T
Protocol: (§1)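 IA-DTB competitive cysteine chemoproteomics in HEK293T RIPA lysate. Lysates were treated with compound 29 or 30 at 50 or 200 µM for 4 h, then IA-DTB (500 µM, 1 h), trypsin-digested, NeutrAvidin-enriched and analysed by diaPASEF. Competition ratio = intensity DMSO / intensity compound (n=4 treated, n=64 DMSO); binding: mean log2 CR ≥ 1 and p ≤ 0.05 plus QC filters. Target is the cysteine site.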

[2] = compound: ClCC(=O)N[C@H]1CCCc2ccccc12; assay: as above; conditions: treatment time: 4 h, cell line lysate: HEK293T
Protocol: as §1

Target | log2 mean competition ratio ([1]; 50 µM) | log2 mean competition ratio ([1]; 200 µM) | log2 mean competition ratio ([2]; 50 µM) | log2 mean competition ratio ([2]; 200 µM)
STAT2 C529 (UniProt P52630) | -0.0139 | 0.165 | 0.047 | 0.0356
SRRM2 C872 (UniProt Q9UQ35) | 0.0458 | 0.0608 | 0.0705 | 0.168
SYNJ2 C19 (UniProt O15056) | -0.298 | -0.188 | -0.183 | -0.141
STON1 C35 (UniProt Q9Y6Q2) | 0.393 | 0.0621 | -0.125 | 0.1
SPDL1 C467 (UniProt Q96EA4) | 0.351 | 3.74e-05 | 0.77 | 0.0573
SYNE2 C2935 (UniProt Q8WXH0) | 0.0451 | -0.0572 | -0.22 | 0.0406
SPATA5L1 C696 (UniProt Q9BVQ7) | -0.124 | -0.23 | -0.118 | -0.384
SRSF5 C63 (UniProt Q13243) | -0.225 | 0.316 | -0.174 | 0.327
SUMO1 C52 (UniProt P63165) | 0.247 | -0.238 | 0.103 | -0.0144
SUN1 C630 (UniProt O94901) | 0.00322 | -0.192 | 0.179 | -0.157
SPINT2 C179 | 0.0169 | 0.474 | 0.0712 | 0.391
SPTLC1 C419 (UniProt O15269) | -0.263 | -0.095 | -0.383 | -0.0676
SYNE2 C6121 (UniProt Q8WXH0) | 0.312 | 0.22 | 0.271 | 0.551
STAG1 C636 (UniProt Q8WVM7) | -0.189 | 0.0471 | -0.376 | -0.0725
SPTAN1 C1622 (UniProt Q13813) | -0.0583 | -0.0829 | -0.196 | 0.0706
SRCAP C3036 (UniProt Q6ZRS2) | -0.126 | 0.425 | -0.148 | 0.522
STXBP4 C165 (UniProt Q6ZWJ1) | -0.159 | 0.0208 | -0.23 | 0.0624
SRGAP1 C603 (UniProt Q7Z6B7) | -0.0586 | -0.32 | -0.436 | -0.165
SUGP2 C183 (UniProt Q8IX01) | -0.192 | 0.112 | -0.0672 | 0.0943
SPATA5L1 C580 (UniProt Q9BVQ7) | 0.0974 | 0.252 | 0.0833 | 0.38
SPTLC1 C133 (UniProt O15269) | 0.0557 | -0.112 | 0.148 | -0.12

Single records, from the list above. Values in the order: log2 mean competition ratio ([1]; 50 µM) | log2 mean competition ratio ([1]; 200 µM) | log2 mean competition ratio ([2]; 50 µM) | log2 mean competition ratio ([2]; 200 µM)
SPINT2 C179 is listed with 0.0169 | 0.474 | 0.0712 | 0.391
SPATA5L1 C696 (UniProt Q9BVQ7) is listed with -0.124 | -0.23 | -0.118 | -0.384
